Results are given in words; binding and its absence hold for the method and conditions named. A result given as binding can be weak or reduced; the word gives no strength. For some of these results: Sequences can lack the tags named with a protein.

Chains of the proteins cited; added tags and fusions are not shown. Lines headed by an entry give the natural chain unless they say otherwise; changes in a name come on top.
UniProt Q21740: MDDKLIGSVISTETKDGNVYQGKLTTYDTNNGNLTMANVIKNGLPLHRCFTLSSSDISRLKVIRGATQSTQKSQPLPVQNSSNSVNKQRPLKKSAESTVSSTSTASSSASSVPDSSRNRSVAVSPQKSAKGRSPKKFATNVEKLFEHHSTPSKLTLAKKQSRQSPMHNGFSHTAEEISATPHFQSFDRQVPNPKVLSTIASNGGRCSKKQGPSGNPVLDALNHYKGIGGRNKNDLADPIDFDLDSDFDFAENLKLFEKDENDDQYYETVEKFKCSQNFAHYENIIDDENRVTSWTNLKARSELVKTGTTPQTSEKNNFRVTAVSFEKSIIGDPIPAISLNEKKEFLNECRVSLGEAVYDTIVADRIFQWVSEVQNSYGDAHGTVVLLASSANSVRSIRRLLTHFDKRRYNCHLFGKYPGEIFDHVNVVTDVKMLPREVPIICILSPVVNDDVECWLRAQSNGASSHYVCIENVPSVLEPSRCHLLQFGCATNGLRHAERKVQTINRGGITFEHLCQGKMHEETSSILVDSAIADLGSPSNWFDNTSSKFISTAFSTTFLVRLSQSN

Assay [1] deals with GST-EDC-3_(230–566) (C. elegans) (UniProt Q21740). The experiment in a line: pull-down; GST-EDC-3_(230-566) on GST resin, 50 μg CGH-1_(248-420) with 0, 12.5, 25 or 50 μM PATR-1 peptide, PBS, 2 h, SDS-PAGE; both purified.
Assay [2] shares this target. Put plainly: pull-down; GST-EDC-3_(230-566) on GST resin, 50 μg CGH-1_(248-420) without or with the same amount of CAR-1_(184-268), PBS, 2 h, SDS-PAGE; both purified.
For assay [3] the target is unchanged. The experiment in a line: pull-down; about 100 μg GST or GST-EDC-3_(230-566) on GST resin, ~50 μg CGH-1_(248-420) or 4A mutant, PBS, 2 h, five washes, SDS-PAGE; both purified.

B1: CGH-1_(248–420) wild type (CGH-1 RecA2 domain) (domain or fragment, UniProt Q95YF3 248-420)
chain: EELTLLGVTQYYAFVQEKQKVHCLNTLFRKLQINQSIIFCNSTQRVELLAKKITEIGYSCYYIHSKMAQNHRNRVFHDFRQGNCRNLVCSDLLTRGIDIQAVNVVINFDFPRNAETYLHRIGRSGRFGHLGVAINLITYEDRHTLRRIEQELRTRIEPIPKTVDPKLYVADQQ
As to B1, the binding result in assay [1], in assay [2] and in assay [3] was “binds” in each case.

B2: CGH-1_(248–420) 4A mutant (His269, Cys270, Thr273 and Leu274 to Ala) (domain or fragment, UniProt Q95YF3 248-420)
chain: EELTLLGVTQYYAFVQEKQKVAALNAAFRKLQINQSIIFCNSTQRVELLAKKITEIGYSCYYIHSKMAQNHRNRVFHDFRQGNCRNLVCSDLLTRGIDIQAVNVVINFDFPRNAETYLHRIGRSGRFGHLGVAINLITYEDRHTLRRIEQELRTRIEPIPKTVDPKLYVADQQ
Regarding B2, the binding result in assay [3] is listed as “binds”.

The record behind these values is article PMC8514580, “Insight into the interaction between the RNA helicase CGH-1 and EDC-3 and its implications” (Scientific Reports, 2021).
